# Laboratory results as given in article PMC10374565.
# Amino acid sequences for entries named in this document (tags omitted).
# UniProt P67809: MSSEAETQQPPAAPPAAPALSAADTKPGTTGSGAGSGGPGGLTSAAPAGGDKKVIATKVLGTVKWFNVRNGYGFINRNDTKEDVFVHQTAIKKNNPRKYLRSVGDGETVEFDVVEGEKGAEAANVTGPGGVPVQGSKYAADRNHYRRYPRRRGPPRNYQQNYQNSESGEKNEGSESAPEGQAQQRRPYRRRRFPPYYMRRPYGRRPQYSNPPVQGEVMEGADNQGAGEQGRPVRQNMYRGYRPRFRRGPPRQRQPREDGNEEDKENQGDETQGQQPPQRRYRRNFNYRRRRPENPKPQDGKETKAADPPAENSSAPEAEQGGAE
# UniProt P50990: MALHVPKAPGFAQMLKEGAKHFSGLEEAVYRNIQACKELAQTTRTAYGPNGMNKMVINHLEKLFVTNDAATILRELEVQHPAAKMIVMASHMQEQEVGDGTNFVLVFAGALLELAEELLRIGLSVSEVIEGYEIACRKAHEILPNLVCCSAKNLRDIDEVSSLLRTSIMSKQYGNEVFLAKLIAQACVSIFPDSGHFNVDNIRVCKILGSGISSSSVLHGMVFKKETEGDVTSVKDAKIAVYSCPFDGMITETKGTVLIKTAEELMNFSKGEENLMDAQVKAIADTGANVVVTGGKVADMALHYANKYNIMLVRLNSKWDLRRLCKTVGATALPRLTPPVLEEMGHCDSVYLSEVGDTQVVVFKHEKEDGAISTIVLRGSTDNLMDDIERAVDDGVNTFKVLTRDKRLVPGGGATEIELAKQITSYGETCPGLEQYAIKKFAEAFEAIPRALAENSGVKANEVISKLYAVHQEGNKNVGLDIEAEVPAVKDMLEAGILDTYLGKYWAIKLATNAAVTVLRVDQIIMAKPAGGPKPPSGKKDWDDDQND
# UniProt P48643: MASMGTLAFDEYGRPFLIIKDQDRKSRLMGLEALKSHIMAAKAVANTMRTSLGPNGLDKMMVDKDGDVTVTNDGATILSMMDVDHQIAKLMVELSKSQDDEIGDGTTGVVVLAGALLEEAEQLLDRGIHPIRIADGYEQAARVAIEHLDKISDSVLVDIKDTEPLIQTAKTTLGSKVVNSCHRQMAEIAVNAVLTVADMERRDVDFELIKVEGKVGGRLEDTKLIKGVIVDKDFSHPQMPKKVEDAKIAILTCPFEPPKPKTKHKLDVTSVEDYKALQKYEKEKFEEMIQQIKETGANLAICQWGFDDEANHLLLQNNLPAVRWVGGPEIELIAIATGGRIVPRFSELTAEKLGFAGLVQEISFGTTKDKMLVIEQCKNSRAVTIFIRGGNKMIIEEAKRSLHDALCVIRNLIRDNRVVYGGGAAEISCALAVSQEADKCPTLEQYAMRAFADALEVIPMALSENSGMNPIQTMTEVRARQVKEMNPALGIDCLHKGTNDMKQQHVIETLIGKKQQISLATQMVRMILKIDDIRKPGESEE
# UniProt Q99832: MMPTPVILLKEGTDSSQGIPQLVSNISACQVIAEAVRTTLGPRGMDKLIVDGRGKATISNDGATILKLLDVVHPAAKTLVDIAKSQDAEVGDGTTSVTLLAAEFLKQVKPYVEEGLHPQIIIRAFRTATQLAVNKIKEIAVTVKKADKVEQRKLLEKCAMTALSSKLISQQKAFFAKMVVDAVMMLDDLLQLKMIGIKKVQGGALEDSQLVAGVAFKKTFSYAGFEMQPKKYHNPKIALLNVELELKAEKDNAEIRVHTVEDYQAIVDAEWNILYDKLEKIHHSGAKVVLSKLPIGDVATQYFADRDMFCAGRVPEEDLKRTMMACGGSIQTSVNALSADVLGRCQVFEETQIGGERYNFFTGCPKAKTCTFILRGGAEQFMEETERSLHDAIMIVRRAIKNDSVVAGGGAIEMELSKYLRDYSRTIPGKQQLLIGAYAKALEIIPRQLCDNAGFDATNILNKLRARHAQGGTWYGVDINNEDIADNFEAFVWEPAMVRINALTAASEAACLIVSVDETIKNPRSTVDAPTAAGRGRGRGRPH
# T1: Flag-tagged THOC3 (human) (UniProt Q96J01)
# T1 sequence: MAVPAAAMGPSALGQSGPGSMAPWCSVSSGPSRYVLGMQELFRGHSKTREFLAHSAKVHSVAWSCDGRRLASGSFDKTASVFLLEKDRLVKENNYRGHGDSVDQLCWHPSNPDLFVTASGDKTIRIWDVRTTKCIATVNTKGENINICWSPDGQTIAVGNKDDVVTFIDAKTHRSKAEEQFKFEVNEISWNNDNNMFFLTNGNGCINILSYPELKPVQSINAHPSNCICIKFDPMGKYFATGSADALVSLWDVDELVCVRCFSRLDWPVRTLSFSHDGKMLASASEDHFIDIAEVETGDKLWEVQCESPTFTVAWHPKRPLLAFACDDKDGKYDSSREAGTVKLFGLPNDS
# Target: T1, Flag-tagged THOC3 (human)
# Experiment: affinity purification with mass spectrometry; immunoprecipitation with Flag and IgG antibodies from H1703 cells; silver-stained bands excised, in-gel trypsin digestion, nanoLC-MS/MS (Orbitrap Fusion), Mascot search
row,Molecule,binding
1,YBX1 (from UniProt P67809 1-324),binds
2,CCT8 (from UniProt P50990 1-548),binds
3,"CCT2 (protein, UniProt P78371 1-535) MASLSLAPVNIFKAGADEERAETARLTSFIGAIAIGDLVKSTLGPKGMDKILLSSGRDASLMVTNDGATILKNIGVDNPAAKVLVDMSRVQDDEVGDGTTSVTVLAAELLREAESLIAKKIHPQTIIAGWREATKAAREALLSSAVDHGSDEVKFRQDLMNIAGTTLSSKLLTHHKDHFTKLAVEAVLRLKGSGNLEAIHIIKKLGGSLADSYLDEGFLLDKKIGVNQPKRIENAKILIANTGMDTDKIKIFGSRVRVDSTAKVAEIEHAEKEKMKEKVERILKHGINCFINRQLIYNYPEQLFGAAGVMAIEHADFAGVERLALVTGGEIASTFDHPELVKLGSCKLIEEVMIGEDKLIHFSGVALGEACTIVLRGATQQILDEAERSLHDALCVLAQTVKDSRTVYGGGCSEMLMAHAVTQLANRTPGKEAVAMESYAKALRMLPTIIADNAGYDSADLVAQLRAAHSEGNTTAGLDMREGTIGDMAILGITESFQVKRQVLLSAAEAAEVILRVDNIIKAAPRKRVPDHHPC",binds

# Further lines, results first:
row,binding,Molecule
1,binds,CCT5 (from UniProt P48643 1-541)
2,binds,CCT7 (from UniProt Q99832 1-543)

# Results are given in words; binding and its absence hold for the method and conditions named. Binding seen in cells or lysates may run through a third protein. Here binding means that the protein was enriched with, or labelled near, the bait; the list need not be complete. Where a sequence is shown, tags or fusion partners need not be part of it.
